# From patent publication US20100048699A1, “CHEMICAL COMPOUNDS” (SYNGENTA CROP PROTECTION, INC., priority 2006, published 2010)
# Some of these results come from one statement about several compounds together.
# Test system: Heliothis virescens
# Assay: Heliothis virescens (tobacco budworm) egg/larval test on artificial diet
# Format: in vivo
# Settings: 200 ppm by pipetting, eggs (0-24 h old) on artificial diet, 4 days; egg mortality, larval mortality, growth regulation
row,SMILES,control of Heliothis virescens
1,CCC(Oc1ccccc1)C(=O)OCCNC(=S)NC1CCc2c(F)cccc21 (centres unmarked) [Compound 11.051],at least 80%
2,O=C(OCCNC(=S)NC1CCc2c(F)cccc21)c1cccc2c1OC(F)(F)O2 (centres unmarked) [Compound 11.031],at least 80%
3,O=C(OCCNC(=S)NC1CCc2c(F)cccc21)c1ccccc1C(F)(F)F (centres unmarked) [Compound 11.023],at least 80%
4,Cc1c(S(=O)(=O)c2ccc(Cl)cc2)csc1C(=O)OCCNC(=S)NC1CCc2c(F)cccc21 (centres unmarked) [Compound 11.046],at least 80%
5,O=C(OCCNC(=S)NC1CCc2c(F)cccc21)c1ccc(F)cc1C(F)(F)F (centres unmarked) [Compound 11.034],at least 80%
